Measurements published in publication PMC6277416.

By UniProt entry, the sequences of proteins in these tests, tags left out.
UniProt Q9D4H1: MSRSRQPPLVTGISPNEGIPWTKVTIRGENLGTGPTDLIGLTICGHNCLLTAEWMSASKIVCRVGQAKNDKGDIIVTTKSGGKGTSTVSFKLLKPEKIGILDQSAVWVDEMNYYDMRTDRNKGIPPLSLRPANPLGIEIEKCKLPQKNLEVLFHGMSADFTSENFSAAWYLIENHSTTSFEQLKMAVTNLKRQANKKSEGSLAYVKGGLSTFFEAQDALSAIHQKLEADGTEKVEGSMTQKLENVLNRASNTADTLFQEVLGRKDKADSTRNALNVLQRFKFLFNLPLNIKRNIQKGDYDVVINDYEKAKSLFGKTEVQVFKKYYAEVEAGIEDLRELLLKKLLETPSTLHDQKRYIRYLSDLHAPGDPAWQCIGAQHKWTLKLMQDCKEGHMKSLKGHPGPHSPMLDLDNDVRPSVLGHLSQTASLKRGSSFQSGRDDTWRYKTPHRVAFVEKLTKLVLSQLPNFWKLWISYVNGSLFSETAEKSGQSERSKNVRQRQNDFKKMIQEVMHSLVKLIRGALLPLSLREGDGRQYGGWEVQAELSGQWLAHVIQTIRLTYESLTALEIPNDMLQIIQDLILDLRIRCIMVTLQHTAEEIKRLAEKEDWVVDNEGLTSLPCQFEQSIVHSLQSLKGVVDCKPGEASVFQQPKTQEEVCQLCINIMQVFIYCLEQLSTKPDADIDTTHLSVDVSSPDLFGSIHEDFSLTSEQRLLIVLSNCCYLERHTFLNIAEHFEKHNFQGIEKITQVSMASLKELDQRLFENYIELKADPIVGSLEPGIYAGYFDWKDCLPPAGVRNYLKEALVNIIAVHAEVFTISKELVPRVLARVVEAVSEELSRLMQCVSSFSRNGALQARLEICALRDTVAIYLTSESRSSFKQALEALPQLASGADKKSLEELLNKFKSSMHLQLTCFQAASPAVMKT
UniProt Q8R3S6: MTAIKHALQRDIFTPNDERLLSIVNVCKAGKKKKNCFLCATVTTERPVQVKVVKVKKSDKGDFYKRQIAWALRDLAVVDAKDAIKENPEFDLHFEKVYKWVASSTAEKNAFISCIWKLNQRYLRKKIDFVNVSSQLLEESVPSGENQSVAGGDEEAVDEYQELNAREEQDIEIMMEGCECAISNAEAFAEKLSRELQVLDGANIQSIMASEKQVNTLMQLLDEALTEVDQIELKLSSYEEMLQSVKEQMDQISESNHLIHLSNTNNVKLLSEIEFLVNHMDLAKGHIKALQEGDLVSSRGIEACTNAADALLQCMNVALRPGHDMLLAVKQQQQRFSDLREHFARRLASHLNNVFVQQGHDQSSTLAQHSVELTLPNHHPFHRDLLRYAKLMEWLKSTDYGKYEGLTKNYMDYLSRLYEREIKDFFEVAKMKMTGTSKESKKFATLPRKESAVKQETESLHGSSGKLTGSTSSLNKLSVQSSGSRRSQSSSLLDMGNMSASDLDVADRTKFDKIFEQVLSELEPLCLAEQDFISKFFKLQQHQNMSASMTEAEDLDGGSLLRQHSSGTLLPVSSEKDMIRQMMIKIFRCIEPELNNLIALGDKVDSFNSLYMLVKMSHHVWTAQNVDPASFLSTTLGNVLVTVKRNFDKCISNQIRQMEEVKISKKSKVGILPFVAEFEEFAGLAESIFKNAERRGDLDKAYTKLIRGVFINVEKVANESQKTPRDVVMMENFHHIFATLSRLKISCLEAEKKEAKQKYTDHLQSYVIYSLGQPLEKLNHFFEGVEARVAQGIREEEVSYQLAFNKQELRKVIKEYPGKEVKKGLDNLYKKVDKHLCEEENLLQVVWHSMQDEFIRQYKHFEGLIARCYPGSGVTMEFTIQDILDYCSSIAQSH
UniProt O35250: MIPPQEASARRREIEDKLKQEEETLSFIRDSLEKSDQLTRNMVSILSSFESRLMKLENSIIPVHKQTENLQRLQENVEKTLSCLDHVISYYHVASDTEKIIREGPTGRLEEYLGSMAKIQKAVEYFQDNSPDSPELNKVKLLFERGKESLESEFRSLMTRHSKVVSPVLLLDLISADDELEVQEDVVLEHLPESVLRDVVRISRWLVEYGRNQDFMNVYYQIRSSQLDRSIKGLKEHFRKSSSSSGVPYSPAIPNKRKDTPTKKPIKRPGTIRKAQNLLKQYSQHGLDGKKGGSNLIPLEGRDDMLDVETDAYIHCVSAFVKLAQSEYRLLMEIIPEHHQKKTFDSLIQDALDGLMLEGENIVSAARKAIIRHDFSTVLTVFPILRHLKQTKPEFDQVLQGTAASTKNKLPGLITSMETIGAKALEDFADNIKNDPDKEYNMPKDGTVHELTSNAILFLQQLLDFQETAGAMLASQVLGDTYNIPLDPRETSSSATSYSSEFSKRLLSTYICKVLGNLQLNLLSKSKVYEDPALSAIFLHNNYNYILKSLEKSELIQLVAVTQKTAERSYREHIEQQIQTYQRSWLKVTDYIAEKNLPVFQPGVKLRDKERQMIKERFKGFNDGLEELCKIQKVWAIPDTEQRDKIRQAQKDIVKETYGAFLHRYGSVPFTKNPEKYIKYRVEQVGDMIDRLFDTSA
UniProt O35382: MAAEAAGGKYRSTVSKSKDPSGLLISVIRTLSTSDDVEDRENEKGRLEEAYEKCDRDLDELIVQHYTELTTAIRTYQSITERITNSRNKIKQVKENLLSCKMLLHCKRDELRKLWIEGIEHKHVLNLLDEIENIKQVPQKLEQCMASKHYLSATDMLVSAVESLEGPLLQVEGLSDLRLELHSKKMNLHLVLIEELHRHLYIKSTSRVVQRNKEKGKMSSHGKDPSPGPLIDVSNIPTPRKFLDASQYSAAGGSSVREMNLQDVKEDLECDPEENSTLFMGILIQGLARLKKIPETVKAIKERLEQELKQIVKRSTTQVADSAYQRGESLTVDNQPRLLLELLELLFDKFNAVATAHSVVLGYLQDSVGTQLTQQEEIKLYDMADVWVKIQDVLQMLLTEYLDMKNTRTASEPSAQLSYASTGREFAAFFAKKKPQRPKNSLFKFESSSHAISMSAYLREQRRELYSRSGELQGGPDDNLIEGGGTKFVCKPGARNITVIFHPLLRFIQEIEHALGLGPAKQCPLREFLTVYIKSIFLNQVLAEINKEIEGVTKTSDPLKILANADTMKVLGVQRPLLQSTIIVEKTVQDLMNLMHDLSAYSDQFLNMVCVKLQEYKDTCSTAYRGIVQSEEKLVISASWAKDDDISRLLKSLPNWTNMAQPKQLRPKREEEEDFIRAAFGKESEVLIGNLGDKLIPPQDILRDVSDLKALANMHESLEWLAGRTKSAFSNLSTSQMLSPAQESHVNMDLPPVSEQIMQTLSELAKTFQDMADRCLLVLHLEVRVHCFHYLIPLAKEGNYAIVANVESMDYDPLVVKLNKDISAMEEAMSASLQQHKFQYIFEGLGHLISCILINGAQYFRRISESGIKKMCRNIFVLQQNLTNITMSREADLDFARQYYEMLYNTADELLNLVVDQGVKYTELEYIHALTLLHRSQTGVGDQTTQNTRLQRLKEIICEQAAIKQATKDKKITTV
UniProt Q6KAR6: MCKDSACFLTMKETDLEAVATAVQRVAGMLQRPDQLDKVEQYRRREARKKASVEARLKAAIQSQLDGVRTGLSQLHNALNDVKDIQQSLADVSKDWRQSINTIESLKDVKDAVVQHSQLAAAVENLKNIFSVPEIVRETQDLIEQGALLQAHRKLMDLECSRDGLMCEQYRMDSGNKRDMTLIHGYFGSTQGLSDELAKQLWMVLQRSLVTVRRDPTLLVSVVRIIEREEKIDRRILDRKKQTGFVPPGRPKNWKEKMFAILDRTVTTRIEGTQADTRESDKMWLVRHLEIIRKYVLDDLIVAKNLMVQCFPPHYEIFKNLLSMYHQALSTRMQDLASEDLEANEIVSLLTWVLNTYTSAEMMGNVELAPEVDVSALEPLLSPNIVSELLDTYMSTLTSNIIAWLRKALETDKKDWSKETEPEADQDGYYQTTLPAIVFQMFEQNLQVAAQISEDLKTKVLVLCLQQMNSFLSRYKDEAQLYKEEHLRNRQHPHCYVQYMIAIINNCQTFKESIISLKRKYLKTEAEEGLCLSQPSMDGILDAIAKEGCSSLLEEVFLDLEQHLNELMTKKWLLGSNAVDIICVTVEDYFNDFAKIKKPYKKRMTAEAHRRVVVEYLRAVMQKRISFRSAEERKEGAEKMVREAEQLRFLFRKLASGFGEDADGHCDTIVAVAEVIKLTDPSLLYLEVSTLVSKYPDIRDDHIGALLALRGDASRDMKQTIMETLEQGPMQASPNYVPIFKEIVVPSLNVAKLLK

B1: SNAP23 (protein, UniProt O09044 1-210)
chain: MDNLSPEEVQLRAHQVTDESLESTRRILGLAIESQDAGIKTITMLDEQGEQLNRIEEGMDQINKDMREAEKTLTELNKCCGLCICPCNRTKNFESGKNYKATWGDGGDNSPSNVVSKQPSRITNGQPQQTTGAASGGYIKRITNDAREDEMEENLTQVGSILGNLKNMALDMGNEIDAQNQQIQKITEKADTNKNRIDIANTRAKKLIDS
B2: RALA (protein, UniProt P63321 1-206)
chain: MAANKPKGQNSLALHKVIMVGSGGVGKSALTLQFMYDEFVEDYEPTKADSYRKKVVLDGEEVQIDILDTAGQEDYAAIRDNYFRSGEGFLCVFSITEMESFAATADFREQILRVKEDENVPFLLVGNKSDLEDKRQVSVEEAKNRADQWNVNYVETSAKTRANVDKVFFDLMREIRARKMEDSKEKNGKKKRKSLAKRIRERCCIL
B3: RALB (protein, UniProt Q9JIW9 1-206)
chain: MAANKGKSQGSLVLHKVIMVGSGGVGKSALTLQFMYDEFVEDYEPTKADSYRKKVVLDGEEVQIDILDTAGQEDYAAIRDNYFRSGEGFLLVFSITEHESFTATAEFREQILRVKSEEDKIPLLVVGNKSDLEERRQVPVDEARGKAEEWGVQYVETSAKTRANVDKVFFDLMREIRAKKMSENKDKNGRKSSKSKKSFKERCCLL

Experiments:
Test in all cases: affinity purification with mass spectrometry; GFP-Trap_MA beads on lysates of EXO70-GFP, SEC3-GFP or SEC5-GFP knock-in NMuMG cells (20 mM HEPES pH 7.4, 50 mM NaCl, 2 mM EDTA, 0.1% Triton X-100, 4 °C, 30 min), LC-MS/MS; for EXO70-GFP also quantitative full-scan LC-MS/MS from intact or SEC8-shRNA cells (SC2 subunits still recovered)
[1] = target: SEC5-GFP (mouse (endogenous in NMuMG)) (UniProt Q9D4H1)
[2] = target: SEC3-GFP (mouse (endogenous in NMuMG)) (UniProt Q8R3S6)
[3] = target: EXO70-GFP (mouse (endogenous in NMuMG)) (UniProt O35250)
[4] = target: SEC5-GFP (mouse (endogenous in NMuMG)) (UniProt Q9D4H1); remark: listed apart in the source
[5] = target: SEC3-GFP (mouse (endogenous in NMuMG)) (UniProt Q8R3S6); remark: listed apart in the source

Row | Molecule | binding [1] | binding [2] | binding [3] | binding [4] | binding [5]
1 | SEC3 (from UniProt Q8R3S6 1-894) | binds |  |  |  | 
2 | SEC8 (from UniProt O35382 1-975) | binds | binds |  |  | 
3 | SEC6 (from UniProt Q6KAR6 1-755) | binds | binds |  |  | 
4 | SEC5 (from UniProt Q9D4H1 1-924) |  | binds |  |  | 
5 | B1 |  |  | binds | no binding | 
6 | B2 |  |  | binds | binds | binds
7 | B3 |  |  | binds | binds | binds

Like-named read-outs stand apart in the source and are kept apart here. Results are given in words; binding and its absence hold for the method and conditions named. Binding seen in cells or lysates may run through a third protein. These calls come from enrichment with a bait or labelling near it, and not all partners need be listed. For some assays here: No binding means not detected with the bait.
